Laboratory results: the supplement of paper PMC10849652
Some of the results follow.

Amino acid sequences for entries named in this document (tags omitted). A change or cut given only in a name is not applied to a line headed by its entry.
UniProt P17275: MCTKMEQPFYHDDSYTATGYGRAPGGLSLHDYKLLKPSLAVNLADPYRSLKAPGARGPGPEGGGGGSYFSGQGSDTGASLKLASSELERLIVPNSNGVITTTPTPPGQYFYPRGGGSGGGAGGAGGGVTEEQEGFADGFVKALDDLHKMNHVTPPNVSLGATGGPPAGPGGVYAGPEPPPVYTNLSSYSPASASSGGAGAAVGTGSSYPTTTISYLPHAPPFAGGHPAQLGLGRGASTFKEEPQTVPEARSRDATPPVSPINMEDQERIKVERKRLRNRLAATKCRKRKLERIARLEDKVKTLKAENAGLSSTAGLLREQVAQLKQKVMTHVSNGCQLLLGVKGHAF
UniProt O94854: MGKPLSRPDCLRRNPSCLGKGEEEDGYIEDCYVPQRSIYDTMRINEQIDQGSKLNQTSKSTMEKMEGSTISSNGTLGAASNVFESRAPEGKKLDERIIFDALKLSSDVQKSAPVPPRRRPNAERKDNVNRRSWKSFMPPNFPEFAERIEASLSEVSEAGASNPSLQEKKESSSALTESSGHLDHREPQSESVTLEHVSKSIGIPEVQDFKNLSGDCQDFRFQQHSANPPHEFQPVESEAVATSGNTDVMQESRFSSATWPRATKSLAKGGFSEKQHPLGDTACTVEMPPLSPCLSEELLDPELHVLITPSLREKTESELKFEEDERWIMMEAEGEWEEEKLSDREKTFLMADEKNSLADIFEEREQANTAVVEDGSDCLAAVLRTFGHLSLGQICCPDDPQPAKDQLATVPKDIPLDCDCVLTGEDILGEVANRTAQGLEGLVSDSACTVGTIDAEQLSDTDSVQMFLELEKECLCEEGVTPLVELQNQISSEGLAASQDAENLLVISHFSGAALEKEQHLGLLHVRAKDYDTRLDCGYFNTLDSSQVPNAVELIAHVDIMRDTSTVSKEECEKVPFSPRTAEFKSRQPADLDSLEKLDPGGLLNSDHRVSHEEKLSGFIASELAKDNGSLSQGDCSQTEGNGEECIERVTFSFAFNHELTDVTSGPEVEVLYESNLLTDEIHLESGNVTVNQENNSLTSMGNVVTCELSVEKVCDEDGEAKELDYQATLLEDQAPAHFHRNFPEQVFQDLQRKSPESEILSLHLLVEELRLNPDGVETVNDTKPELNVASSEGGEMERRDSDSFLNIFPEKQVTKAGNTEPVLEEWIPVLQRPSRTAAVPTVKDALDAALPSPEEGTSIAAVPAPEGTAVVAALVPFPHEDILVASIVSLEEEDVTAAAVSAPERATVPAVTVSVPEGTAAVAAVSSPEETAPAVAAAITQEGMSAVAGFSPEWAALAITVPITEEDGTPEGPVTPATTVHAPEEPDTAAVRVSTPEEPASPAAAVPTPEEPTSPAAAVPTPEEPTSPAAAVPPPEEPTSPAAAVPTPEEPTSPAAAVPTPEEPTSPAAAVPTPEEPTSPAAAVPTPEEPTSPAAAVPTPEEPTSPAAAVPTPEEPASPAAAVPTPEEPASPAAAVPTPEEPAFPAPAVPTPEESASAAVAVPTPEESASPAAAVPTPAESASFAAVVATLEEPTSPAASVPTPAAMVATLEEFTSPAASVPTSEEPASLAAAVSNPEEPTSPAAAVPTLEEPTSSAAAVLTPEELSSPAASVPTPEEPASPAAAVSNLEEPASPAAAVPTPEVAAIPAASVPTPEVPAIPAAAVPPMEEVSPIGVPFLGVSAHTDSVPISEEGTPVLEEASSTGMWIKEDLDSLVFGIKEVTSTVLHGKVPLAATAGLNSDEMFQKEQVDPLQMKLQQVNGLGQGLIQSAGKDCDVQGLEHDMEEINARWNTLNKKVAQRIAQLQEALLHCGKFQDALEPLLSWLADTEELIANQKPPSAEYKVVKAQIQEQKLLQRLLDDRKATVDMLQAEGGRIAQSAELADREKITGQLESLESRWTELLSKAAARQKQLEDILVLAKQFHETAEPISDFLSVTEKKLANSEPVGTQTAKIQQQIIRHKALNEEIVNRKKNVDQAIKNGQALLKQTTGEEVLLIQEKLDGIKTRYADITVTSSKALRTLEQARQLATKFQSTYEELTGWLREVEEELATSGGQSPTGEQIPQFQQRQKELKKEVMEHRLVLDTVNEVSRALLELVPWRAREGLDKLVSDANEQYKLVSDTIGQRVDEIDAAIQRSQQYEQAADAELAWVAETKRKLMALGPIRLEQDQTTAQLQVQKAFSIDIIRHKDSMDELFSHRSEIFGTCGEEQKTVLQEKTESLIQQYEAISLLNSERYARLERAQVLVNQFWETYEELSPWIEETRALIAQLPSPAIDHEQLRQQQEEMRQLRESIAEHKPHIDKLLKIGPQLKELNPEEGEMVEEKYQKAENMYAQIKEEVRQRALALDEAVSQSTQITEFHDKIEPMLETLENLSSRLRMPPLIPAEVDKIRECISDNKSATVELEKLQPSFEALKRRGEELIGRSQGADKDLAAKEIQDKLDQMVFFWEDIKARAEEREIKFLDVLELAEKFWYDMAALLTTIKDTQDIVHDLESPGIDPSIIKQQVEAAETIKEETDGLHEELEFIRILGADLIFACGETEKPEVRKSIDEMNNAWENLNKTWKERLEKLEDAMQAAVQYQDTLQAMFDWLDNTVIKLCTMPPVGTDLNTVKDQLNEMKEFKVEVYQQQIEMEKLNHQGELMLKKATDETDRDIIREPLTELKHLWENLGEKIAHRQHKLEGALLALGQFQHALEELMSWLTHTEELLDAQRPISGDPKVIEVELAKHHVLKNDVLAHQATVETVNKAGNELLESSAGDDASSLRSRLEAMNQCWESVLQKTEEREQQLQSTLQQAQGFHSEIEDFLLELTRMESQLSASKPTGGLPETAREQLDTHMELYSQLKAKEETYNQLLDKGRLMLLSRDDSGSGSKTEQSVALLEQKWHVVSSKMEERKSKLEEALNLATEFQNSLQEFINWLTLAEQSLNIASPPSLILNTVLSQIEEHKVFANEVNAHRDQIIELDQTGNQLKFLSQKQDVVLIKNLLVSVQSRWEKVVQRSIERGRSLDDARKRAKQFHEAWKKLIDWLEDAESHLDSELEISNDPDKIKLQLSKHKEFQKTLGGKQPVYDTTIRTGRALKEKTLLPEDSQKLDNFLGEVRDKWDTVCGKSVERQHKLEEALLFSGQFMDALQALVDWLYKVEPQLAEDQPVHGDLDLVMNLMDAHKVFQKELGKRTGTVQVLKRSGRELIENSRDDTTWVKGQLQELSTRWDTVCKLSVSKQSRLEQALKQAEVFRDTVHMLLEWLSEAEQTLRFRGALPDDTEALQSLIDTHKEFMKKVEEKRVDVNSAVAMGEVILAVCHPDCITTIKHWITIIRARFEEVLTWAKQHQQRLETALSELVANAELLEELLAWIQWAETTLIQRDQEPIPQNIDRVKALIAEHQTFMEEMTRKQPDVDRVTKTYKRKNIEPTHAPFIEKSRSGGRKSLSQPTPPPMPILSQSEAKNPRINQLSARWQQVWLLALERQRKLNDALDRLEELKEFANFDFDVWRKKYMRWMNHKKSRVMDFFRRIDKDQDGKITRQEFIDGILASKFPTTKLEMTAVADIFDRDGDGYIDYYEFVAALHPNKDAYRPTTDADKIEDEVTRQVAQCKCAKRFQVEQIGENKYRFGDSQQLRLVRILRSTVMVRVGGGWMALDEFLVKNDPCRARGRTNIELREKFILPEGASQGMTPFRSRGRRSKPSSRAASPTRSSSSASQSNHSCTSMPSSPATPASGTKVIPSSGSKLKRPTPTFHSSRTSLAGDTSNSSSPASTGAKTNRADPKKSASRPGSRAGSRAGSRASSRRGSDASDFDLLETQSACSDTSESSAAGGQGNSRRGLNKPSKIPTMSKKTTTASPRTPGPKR
UniProt Q5JYT7: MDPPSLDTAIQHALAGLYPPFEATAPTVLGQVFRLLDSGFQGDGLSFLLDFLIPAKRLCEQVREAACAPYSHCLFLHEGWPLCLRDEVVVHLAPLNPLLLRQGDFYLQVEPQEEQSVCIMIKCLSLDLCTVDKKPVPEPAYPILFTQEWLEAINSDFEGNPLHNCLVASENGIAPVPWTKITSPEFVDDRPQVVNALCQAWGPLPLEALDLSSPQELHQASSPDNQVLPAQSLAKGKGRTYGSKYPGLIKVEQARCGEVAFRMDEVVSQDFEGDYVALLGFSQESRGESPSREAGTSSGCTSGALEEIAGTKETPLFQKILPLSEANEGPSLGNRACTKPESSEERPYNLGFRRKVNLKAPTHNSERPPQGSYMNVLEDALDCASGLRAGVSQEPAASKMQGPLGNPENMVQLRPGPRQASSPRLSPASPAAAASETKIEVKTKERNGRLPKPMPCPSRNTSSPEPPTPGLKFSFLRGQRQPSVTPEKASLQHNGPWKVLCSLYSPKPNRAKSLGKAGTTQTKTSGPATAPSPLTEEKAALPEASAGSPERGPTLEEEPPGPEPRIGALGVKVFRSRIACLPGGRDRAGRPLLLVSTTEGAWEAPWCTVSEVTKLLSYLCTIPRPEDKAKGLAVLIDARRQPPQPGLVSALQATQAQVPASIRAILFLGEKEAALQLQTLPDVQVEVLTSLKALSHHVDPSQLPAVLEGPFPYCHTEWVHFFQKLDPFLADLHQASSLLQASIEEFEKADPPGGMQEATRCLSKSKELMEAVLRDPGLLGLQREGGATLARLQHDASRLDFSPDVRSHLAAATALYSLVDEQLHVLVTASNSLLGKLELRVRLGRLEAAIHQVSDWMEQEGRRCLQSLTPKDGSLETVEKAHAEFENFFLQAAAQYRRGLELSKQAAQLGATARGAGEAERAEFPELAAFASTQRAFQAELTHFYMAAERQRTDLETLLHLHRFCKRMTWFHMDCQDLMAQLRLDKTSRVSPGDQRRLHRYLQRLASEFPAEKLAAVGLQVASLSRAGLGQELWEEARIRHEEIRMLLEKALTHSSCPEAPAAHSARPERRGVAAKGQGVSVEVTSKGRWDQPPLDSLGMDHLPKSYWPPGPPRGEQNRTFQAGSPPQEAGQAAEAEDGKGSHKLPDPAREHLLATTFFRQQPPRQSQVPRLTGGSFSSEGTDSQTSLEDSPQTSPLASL
UniProt O95279: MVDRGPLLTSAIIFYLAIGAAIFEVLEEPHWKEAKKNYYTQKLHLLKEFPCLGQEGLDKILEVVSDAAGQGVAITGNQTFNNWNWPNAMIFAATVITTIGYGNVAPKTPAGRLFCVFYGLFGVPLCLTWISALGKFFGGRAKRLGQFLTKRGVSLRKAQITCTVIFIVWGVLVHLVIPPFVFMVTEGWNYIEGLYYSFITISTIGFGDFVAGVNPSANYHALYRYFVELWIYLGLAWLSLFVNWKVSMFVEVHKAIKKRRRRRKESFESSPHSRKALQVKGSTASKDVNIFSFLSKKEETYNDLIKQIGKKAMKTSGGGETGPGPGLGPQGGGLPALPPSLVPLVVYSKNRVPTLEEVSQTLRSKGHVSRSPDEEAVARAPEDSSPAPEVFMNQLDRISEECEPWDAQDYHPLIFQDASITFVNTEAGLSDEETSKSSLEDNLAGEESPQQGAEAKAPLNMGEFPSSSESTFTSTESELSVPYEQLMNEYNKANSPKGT
UniProt O95251, whole entry, looked up: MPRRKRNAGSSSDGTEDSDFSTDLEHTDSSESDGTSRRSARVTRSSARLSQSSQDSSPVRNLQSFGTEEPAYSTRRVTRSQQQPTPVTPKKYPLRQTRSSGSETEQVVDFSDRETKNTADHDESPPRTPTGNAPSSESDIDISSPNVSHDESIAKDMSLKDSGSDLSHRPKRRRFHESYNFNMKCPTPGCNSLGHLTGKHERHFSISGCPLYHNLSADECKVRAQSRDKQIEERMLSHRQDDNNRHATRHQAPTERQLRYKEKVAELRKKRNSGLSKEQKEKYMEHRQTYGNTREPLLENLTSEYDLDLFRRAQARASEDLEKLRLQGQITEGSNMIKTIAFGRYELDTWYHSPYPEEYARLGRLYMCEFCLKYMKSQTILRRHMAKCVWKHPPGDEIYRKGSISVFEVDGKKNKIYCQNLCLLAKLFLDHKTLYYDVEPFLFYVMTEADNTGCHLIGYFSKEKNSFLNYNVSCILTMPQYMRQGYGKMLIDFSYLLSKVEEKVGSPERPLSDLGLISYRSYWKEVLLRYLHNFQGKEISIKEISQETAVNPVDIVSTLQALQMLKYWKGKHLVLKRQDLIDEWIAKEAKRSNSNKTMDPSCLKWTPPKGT
UniProt O43240: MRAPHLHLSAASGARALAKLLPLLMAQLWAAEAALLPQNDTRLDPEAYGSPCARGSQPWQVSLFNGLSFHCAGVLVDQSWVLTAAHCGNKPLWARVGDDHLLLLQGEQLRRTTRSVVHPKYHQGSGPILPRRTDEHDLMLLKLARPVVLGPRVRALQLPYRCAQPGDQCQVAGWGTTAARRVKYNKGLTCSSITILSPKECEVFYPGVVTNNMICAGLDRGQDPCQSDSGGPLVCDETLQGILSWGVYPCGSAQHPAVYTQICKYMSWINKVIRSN

Experiments:
Assay in all cases: log2 fold change, soluble protein after heating vs DMSO (PISA); higher = thermal stabilisation; K562 cells, 10 uM, 30 min; active = over 0.2 and 3.5 SD of the protein, either way, in both replicates (recomputed)
[1] = compound: CN1CCN(CCOc2cc(OC3CCOCC3)c3c(Nc4c(Cl)ccc5c4OCO5)ncnc3c2)CC1 [saracatinib]
In short: (§1)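 Soluble protein was quantified by TMTpro 16plex LC-MS/MS after channel sums were equalised. It was obtained as the supernatant after 21,000xg for 90 min from pooled aliquots of K562 cells (2×10^6 cells/mL, 10 μM compound, 30 min) heated for 3 min across 48°C-58°C and extracted in PBS with 0.5% NP-40 at 4°C. Thermal stability values are relative to control samples and come from duplicates. They are given as log2 fold changes.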

[2] = compound: CNc1nc(-c2ccc3c(N)n[nH]c3c2)cc(N2C[C@@H](C(=O)NC3CCCCC3)CC[C@H]2C)n1
In short: as §1

[3] = compound: COc1cc(Nc2ncc3c(n2)-c2ccc(Cl)cc2C(c2c(F)cccc2OC)=NC3)ccc1C(=O)O [alisertib]
In short: as §1

[4] = compound: COc1cc2nc(-c3cc(F)ccc3O)nc(N[C@@H]3CNC[C@H]3C(C)(C)O)c2cc1OC
In short: as §1

[5] = compound: COc1cc2ncnc(Nc3ccc(F)c(Cl)c3)c2cc1OCCCN1CCOCC1 [gefitinib]
In short: as §1

[6] = compound: COc1cccc2cc(-c3nc([C@H]4CC[C@H](C(=O)O)CC4)n4ncnc(N)c34)[nH]c12
In short: as §1

[7] = compound: CS(=O)(=O)CCNCc1ccc(-c2ccc3ncnc(Nc4ccc(OCc5cccc(F)c5)c(Cl)c4)c3c2)o1 [lapatinib]
In short: as §1

[8] = compound: CS(=O)(=O)N1CCN(Cc2cc3nc(-c4cccc5[nH]ncc45)nc(N4CCOCC4)c3s2)CC1 [pictilisib]
In short: as §1

[9] = compound: CN1CC[C@H](c2c(O)cc(O)c3c(=O)cc(-c4ccccc4Cl)oc23)[C@H](O)C1 [alvocidib]
In short: as §1

[10] = compound: CNC(=O)C1=CC=CC=C1NC2=NC(=NC=C2Cl)NC3=C(C=C(C=C3)N4CCOCC4)OC
In short: as §1

[11] = compound: CO[C@H]1C[C@@H]2CC[C@@H](C)[C@@](O)(O2)C(=O)C(=O)N2CCCC[C@H]2C(=O)O[C@H]([C@H](C)C[C@@H]2CC[C@H](n3cnnn3)[C@H](OC)C2)CC(=O)[C@H](C)/C=C(\C)[C@@H](O)[C@@H](OC)C(=O)[C@H](C)C[C@H](C)/C=C/C=C/C=C/1C [zotarolimus]
In short: as §1

[12] = compound: CN1CCN(c2nc(C3=C(c4c[nH]c5ccccc45)C(=O)NC3=O)c3ccccc3n2)CC1 [sotrastaurin]
In short: as §1

[13] = compound: CN1CCc2c(c3ccccc3n2Cc2ccc(C(=O)NO)cc2)C1 [Tubastatin A]
In short: as §1

[14] = compound: CNC(=O)c1ccc(Nc2ncc(C(F)(F)F)c(NCc3nccnc3N(C)S(C)(=O)=O)n2)cc1 [defactinib]
In short: as §1

[15] = compound: CNCc1ccc(-c2[nH]c3cc(F)cc4c3c2CCNC4=O)cc1 [rucaparib]
In short: as §1

[16] = compound: COC(=O)N[C@@H](C)CNc1nccc(-c2cn(C(C)C)nc2-c2cc(Cl)cc(NS(C)(=O)=O)c2F)n1 [encorafenib]
In short: as §1

[17] = compound: COC(=O)[C@H](CCSC)NC(=O)C1=C(C=C(C=C1)NC[C@H](CS)N)C2=CC=CC=C2
In short: as §1

[18] = compound: COC1=CC=C(C=C1)CN2C=CC3=C2C=C(C=C3)C(=O)NO
In short: as §1

[19] = compound: CON(C)C(=O)N1N=C(c2cc(F)ccc2F)S[C@@]1(CCCN)c1ccccc1 [filanesib]
In short: as §1

[20] = compound: COc1cc(C(=O)O)ccc1NC(=O)[C@@H]1N[C@@H](CC(C)(C)C)[C@](C#N)(c2ccc(Cl)cc2F)[C@H]1c1cccc(Cl)c1F [idasanutlin]
In short: as §1

Measured: log2 fold change

KCTD7 (UniProt Q96MP8)
inactive: [1] 0.075 | [2] -0.023 | [3] -0.291 | [4] -0.008 | [5] -0.271 | [6] 0.052 | [7] 0.096 | [8] 0.192

KMT2E (UniProt Q8IZD2)
inactive: [1] 0.059 | [9] -0.052 | [10] 0.233 | [2] 0.001 | [11] 0.047

JUNB (UniProt P17275)
inactive: [12] 0.006 | [9] 0.102 | [13] -0.003 | [10] -0.086 | [14] -0.137 | [15] -0.034 | [16] 0.107 | [17] 0.046 | [18] -0.1 | [19] 0.177 | [11] -0.265 | [20] 0.075 | [3] -0.152 | [5] 0.147 | [6] -0.021 | [8] -0.034

KIAA0754 (UniProt O94854)
inactive: [1] 0.036 | [9] 0 | [13] -0.005 | [2] -0.049 | [11] 0.041 | [4] 0.144 | [7] 0.2

KLHL42 (UniProt Q9P2K6)
inactive: [1] 0.147 | [9] -0.029 | [13] 0.019 | [2] 0.026 | [11] 0.065 | [4] 0.055 | [7] 0.007

JUN (UniProt P05412)
inactive: [12] 0.086 | [9] -0.036 | [13] -0.119 | [10] -0.125 | [15] 0.056 | [16] 0.096 | [19] 0.278 | [11] -0.017 | [3] -0.409 | [5] -0.037 | [6] 0.082

JMJD7 (UniProt P0C870)
inactive: [1] -0.432 | [12] 0.008 | [10] -0.041 | [15] 0.095 | [2] -0.123 | [16] 0.002 | [19] 0.116 | [5] 0.027

KIAA1755 (UniProt Q5JYT7)
inactive: [1] -0.057 | [9] -0.036 | [13] -0.029 | [10] -0.009 | [14] 0.015 | [15] 0.007 | [2] -0.007 | [16] -0.013 | [17] -0.087 | [18] -0.009 | [11] 0.047 | [4] 0 | [7] -0.01

KCNK5 (UniProt O95279)
active: [2] -1.08
inactive: [1] -0.444 | [12] -0.047 | [10] -0.05 | [15] 0.05 | [16] 0.017 | [18] 0.059 | [19] -0.117 | [11] -0.044 | [3] -0.408 | [4] -0.541 | [6] 0.193 | [7] -0.227 | [8] -0.007

KPTN (UniProt Q9Y664)
inactive: [1] 0.006 | [9] -0.005 | [13] 0 | [10] -0.031 | [14] -0.09 | [15] -0.141 | [2] 0.106 | [16] -0.025 | [17] -0.094 | [18] 0.049 | [11] 0.099 | [20] -0.128 | [3] -0.087 | [4] 0.098 | [5] 0.06 | [6] -0.009 | [7] 0.128 | [8] 0.015

2 records drawn at random from the list so far, as already listed:
KIAA0754 (UniProt O94854)
inactive: [1] 0.036 | [9] 0 | [13] -0.005 | [2] -0.049 | [11] 0.041 | [4] 0.144 | [7] 0.2

KLHL42 (UniProt Q9P2K6)
inactive: [1] 0.147 | [9] -0.029 | [13] 0.019 | [2] 0.026 | [11] 0.065 | [4] 0.055 | [7] 0.007

Following part:

KAT7 (UniProt O95251)
inactive: [12] -0.081 | [10] -0.175 | [14] -0.081 | [15] 0.112 | [16] -0.178 | [17] -0.099 | [18] 0.454 | [19] -0.065 | [20] 0.156 | [3] -0.09 | [4] 0.298 | [5] 0.031 | [6] 0.021 | [7] 0.032

KMT5A (UniProt Q9NQR1)
inactive: [12] -0.18 | [8] 0.368
active: [19] 0.976

KLK10 (UniProt O43240)
inactive: [15] -0.013 | [16] -0.058
